We go through seven molecules from patent publication US20040253234A1 (Kyowa Kirin, published 2004).

Numbering of substitutions follows the chain as printed. No constants are given. Whether binding was seen depends on the method and setting. Some results given as binding are weak or reduced against the parent protein; the word gives no strength.

For experiment [1], the target named is T1, C-terminus-biotin labeled compound 1 (an N-terminus peptide of FGF-8; SEQ ID NO:15) (human).
T1 sequence (peptide, C-terminus-biotin labeled): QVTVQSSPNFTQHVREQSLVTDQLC
The experiment can be described thus: BIAcore 2000, C-terminus-biotin labeled FGF-8 peptide on SA chip (item 7 of Example 3). (In general: In SPR one partner is held on a chip, and binding of the other changes the refractive index at the surface.)

For experiment [2] the target is unchanged. The experiment can be described thus: BIAcore 2000, C-terminus-biotin labeled FGF-8 peptide on SA chip, antibody as analyte, RU compared.
For experiment [3], the target named is T2, FGF-8 (manufactured by R&D) (UniProt P55075).
T2 sequence (looked up): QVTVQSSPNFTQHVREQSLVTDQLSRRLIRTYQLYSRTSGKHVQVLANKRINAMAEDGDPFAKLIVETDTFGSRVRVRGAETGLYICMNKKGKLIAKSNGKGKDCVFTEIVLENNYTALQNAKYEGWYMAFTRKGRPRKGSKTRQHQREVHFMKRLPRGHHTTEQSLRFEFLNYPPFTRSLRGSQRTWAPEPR
Kind of experiment: BIAcore 2000, FGF-8 amine-coupled to CM5.

Experiment [4] concerns the target T2, FGF-8 (manufactured by R&D). Kind of experiment: BIAcore 2000, FGF-8 amine-coupled to CM5, antibody as analyte, height of binding (RU) compared.

B1: anti-FGF-8 CDR-grafted antibody HV0LV4-1/CHO (antibody, V domains shown)
VH: QVQLVQSGAEVKKPGASVKVSCKASGYTFTDYYLNWVRQAPGQGLEWMGEIDPGSDSIYYNENLEGRVTITADTSTSTAYMELSSLRSEDTAVYYCARYGYSRYDVRFVYWGQGTLVTVSS
VL: DVVMTQSPLSLPVTPGEPASISCRSSQSLVHSNGRTYLEWYLQKPGQSPKVLIYKVSNRISGVPDRFSGSGSGTDFTLKISRVEAEDVGVYFCFQGSHVPYTFGQGTKVEIK
Regarding B1, the binding result in experiment [1] and in experiment [2] was “binds” each time.

B2: anti-FGF-8 CDR-grafted antibody HV0LV2-1/CHO (antibody, V domains shown)
VH: B1 VH
VL: B1 VL with V2I, K50Q
On to B2, for which the binding result in experiment [1] and in experiment [2] was “binds” throughout.

B3: anti-FGF-8 CDR-grafted antibody HV0LV6 (antibody, V domains shown)
VH: B1 VH
VL: B1 VL with T14S, P15L
notes: YB2/0-derived, vector pKANTEX1334HV0LV6 (from pKANTEX93, human constant regions); also called KM8037
In the case of B3, the binding entry in experiment [3] and in experiment [4] was “binds” throughout.

B4: anti-FGF-8 chimeric antibody KM3334 (antibody, V domains shown)
VH: QVQLQQSGAEVARPGASVKLSCKASGYTFTDYYLNWVKQRSGQGLEWIGEIDPGSDSIYYNENLEGRATLTADKSSSTAYMQLNSLTSEDSAVYFCARYGYSRYDVRFVYWGQGTLVTVST
VL: B1 VL with V3L, S7T, T14S, P15L, E17D, P18Q, V88L, Q105G, V109L
notes: Same expression vector pKANTEX1334 as KM3034 (human gamma1 / kappa constant regions), expressed in YB2/0 cells; also called KiM3334; YB2/0-derived anti-FGF-8 chimeric antibody
As to B4, the binding result in experiment [4] was “binds”.

B5: anti-FGF-8 CDR-grafted antibody HV0LV0 (antibody, V domains shown)
VH: B1 VH
VL: B1 VL with V2I, K50Q, V51L, F92Y
notes: YB2/0-derived, vector pKANTEX1334HV0LV0 (from pKANTEX93, human constant regions)
B5: in experiment [4], the binding entry was “binds”.

B6: anti-FGF-8 CDR-grafted antibody HV6LV6 (antibody, V domains shown)
VH: B1 VH with K12A, K13R, A40R, P41S, M48I, Y95F
VL: B1 VL with T14S, P15L
notes: YB2/0-derived, vector pKANTEX1334HV6LV6 (from pKANTEX93, human constant regions)
Regarding B6, in experiment [4], the binding entry is “binds”.

B7: anti-FGF-8 CDR-grafted antibody HV0LV3-3/CHO (antibody, V domains shown)
VH: B1 VH
VL: B1 VL with V2I, T14S, P15L, K50Q, F92Y
B7: the binding entry in experiment [2] is “binds”.
